# From the supplement of paper PMC8728848
# Some of the results follow.
# B1: AT5G17240(42) (Arabidopsis thaliana), Q6NQJ8 (protein)
# chain: MDLEHQTMETFLRWAAEIGISDSIDSSRFRDSCLGHSLSVSDFPDAGGRGLGAARELKKGELVLKVPRKALMTTESIIAKDLKLSDAVNLHNSLSSTQILSVCLLYEMSKEKKSFWYPYLFHIPRDYDLLATFGNFEKQALQVEDAVWATEKATAKCQSEWKEAGSLMKELELKPKFRSFQAWLWASATISSRTLHVPWDSAGCLCPVGDLFNYDAPGDYSNTPQGPESANNVEEAGLVVETHSERLTDGGFEEDVNAYCLYARRNYQLGEQVLLCYGTYTNLELLEHYGFMLEENSNDKVFIPLETSLFSLASSWPKDSLYIHQDGKLSFALISTLRLWLIPQSQRDKSVMRLVYAGSQISVKNEILVMKWMSEKCGSVLRDLPTSVTEDTVLLHNIDKLQDPELRLEQKETEAFGSEVRAFLDANCLWDVTVLSGKPIEFSRKTSRMLSKWRWSVQWRLSYKRTLADCISYCNEKMNNLLGTQDRLRDL
# Legend:
# Test in all cases: glycan array binding signal (z-score within array); higher = stronger binding
# Details in all cases: glycan notation: IUPAC condensed, linker removed
# [1] = target: Gal3S(b1-3)[Fuc(a1-4)]GlcNAc
# Procedure, shortened: (§1)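 Glycan array data were curated from 3228 arrays in the Consortium for Functional Glycomics database and kept only where the protein sequence was available. Glycan names were converted to IUPAC-condensed notation, and columns mapping to the same glycan were averaged. The binding signal is a within-array Z-score, averaged across arrays of the same protein sequence at different concentrations or buffers and across linkers. Negative Z-scores can be read as non-binding.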
# [2] = target: Gal3S(b1-4)Glc
# Procedure, shortened: as §1
# [3] = target: Gal3S(b1-4)Glc6S
# Procedure, shortened: as §1
# [4] = target: Gal3S(b1-4)GlcNAc
# Procedure, shortened: as §1
# [5] = target: Gal3S(b1-4)[Fuc(a1-3)]Glc6S
# Procedure, shortened: as §1
# [6] = target: Gal3S(b1-4)[Fuc(a1-3)]GlcNAc
# Procedure, shortened: as §1
# [7] = target: Gal3S(b1-4)[Fuc(a1-3)]GlcNAc6S
# Procedure, shortened: as §1
# [8] = target: Gal3S4S(b1-4)GlcNAc
# Procedure, shortened: as §1
# [9] = target: Gal3S6S(b1-4)GlcNAc
# Procedure, shortened: as §1
# [10] = target: Gal3S6S(b1-4)GlcNAc6S
# Procedure, shortened: as §1
# [11] = target: Gal4S(b1-4)GlcNAc
# Procedure, shortened: as §1
# [12] = target: Gal4S6S(b1-4)GlcNAc
# Procedure, shortened: as §1
# [13] = target: Gal6P(b1-4)GlcNAc
# Procedure, shortened: as §1
# [14] = target: Gal6S(b1-3)GlcNAc
# Procedure, shortened: as §1
# [15] = target: Gal6S(b1-3)GlcNAc6S
# Procedure, shortened: as §1
# [16] = target: Gal6S(b1-4)Glc
# Procedure, shortened: as §1
# [17] = target: Gal6S(b1-4)Glc6S
# Procedure, shortened: as §1
# [18] = target: Gal6S(b1-4)GlcNAc
# Procedure, shortened: as §1
# [19] = target: Gal6S(b1-4)GlcNAc6S
# Procedure, shortened: as §1
# [20] = target: GalNAc(a1-3)Gal
# Procedure, shortened: as §1
# [21] = target: GalNAc(a1-3)GalNAc
# Procedure, shortened: as §1
# [22] = target: GalNAc(a1-3)GalNAc(b1-3)Gal(a1-4)Gal(b1-4)Glc
# Procedure, shortened: as §1
# [23] = target: GalNAc(a1-3)GalNAc(b1-3)Gal(a1-4)Gal(b1-4)GlcNAc
# Procedure, shortened: as §1
# [24] = target: GalNAc(b1-3)Gal
# Procedure, shortened: as §1
# [25] = target: GalNAc(b1-3)Gal(a1-4)Gal(b1-4)GlcNAc
# Procedure, shortened: as §1
# [26] = target: GalNAc(b1-3)Gal(a1-4)Gal(b1-4)GlcNAc(b1-3)Gal(b1-4)Glc
# Procedure, shortened: as §1
# [27] = target: GalNAc(b1-3)Gal(a1-6)Gal(b1-4)Glc
# Procedure, shortened: as §1
# [28] = target: GalNAc(b1-3)GalNAc
# Procedure, shortened: as §1
# [29] = target: GalNAc(b1-3)GlcNAc
# Procedure, shortened: as §1
# [30] = target: GalNAc(b1-4)Gal(b1-4)Glc
# Procedure, shortened: as §1
# [31] = target: GalNAc(b1-4)GlcNAc
# Procedure, shortened: as §1
# [32] = target: GalNAc(b1-4)GlcNAc(b1-2)Man
# Procedure, shortened: as §1
# [33] = target: GalNAc(b1-4)GlcNAc(b1-2)Man(a1-3)[GalNAc(b1-4)GlcNAc(b1-2)Man(a1-6)]Man(b1-4)GlcNAc(b1-4)GlcNAc
# Procedure, shortened: as §1
# [34] = target: GalNAc(b1-4)GlcNAc(b1-3)GalNAc(b1-4)GlcNAc
# Procedure, shortened: as §1
# [35] = target: GalNAc(b1-4)GlcNAc6S
# Procedure, shortened: as §1
# [36] = target: GalNAc(b1-6)GalNAc
# Procedure, shortened: as §1
# [37] = target: GalNAc3S(b1-4)GlcNAc
# Procedure, shortened: as §1
# [38] = target: GalNAc3S(b1-4)GlcNAc3S
# Procedure, shortened: as §1
# [39] = target: GalNAc3S(b1-4)[Fuc(a1-3)]GlcNAc
# Procedure, shortened: as §1
# [40] = target: GalNAc4S6S(b1-4)GlcNAc
# Procedure, shortened: as §1
# [41] = target: GalNAc6S(b1-4)GlcNAc
# Procedure, shortened: as §1
# [42] = target: Glc(a1-4)Glc
# Procedure, shortened: as §1
# [43] = target: Glc(a1-4)Glc(a1-4)Glc(a1-4)Glc
# Procedure, shortened: as §1
# [44] = target: Glc(a1-6)Glc(a1-6)Glc
# Procedure, shortened: as §1
# [45] = target: Glc(a1-6)Glc(a1-6)Glc(a1-6)Glc
# Procedure, shortened: as §1
binder,measurement,setting,value
B1,glycan array binding signal (z-score),[1],-0.057
same,glycan array binding signal (z-score),[2],0.617
same,glycan array binding signal (z-score),[3],0.74
same,glycan array binding signal (z-score),[4],-0.082
same,glycan array binding signal (z-score),[5],1.01
same,glycan array binding signal (z-score),[6],-0.017
same,glycan array binding signal (z-score),[7],0.301
same,glycan array binding signal (z-score),[8],-0.223
same,glycan array binding signal (z-score),[9],-0.428
same,glycan array binding signal (z-score),[10],1.61
same,glycan array binding signal (z-score),[11],1.13
same,glycan array binding signal (z-score),[12],-1.1
same,glycan array binding signal (z-score),[13],-0.361
same,glycan array binding signal (z-score),[14],0.316
same,glycan array binding signal (z-score),[15],0.422
same,glycan array binding signal (z-score),[16],-0.21
same,glycan array binding signal (z-score),[17],0.264
same,glycan array binding signal (z-score),[18],0.729
same,glycan array binding signal (z-score),[19],0.553
same,glycan array binding signal (z-score),[20],0.613
same,glycan array binding signal (z-score),[21],-0.053
same,glycan array binding signal (z-score),[22],-0.268
same,glycan array binding signal (z-score),[23],-0.446
same,glycan array binding signal (z-score),[24],-0.561
same,glycan array binding signal (z-score),[25],3.08
same,glycan array binding signal (z-score),[26],-0.155
same,glycan array binding signal (z-score),[27],-0.456
same,glycan array binding signal (z-score),[28],-0.226
same,glycan array binding signal (z-score),[29],0.534
same,glycan array binding signal (z-score),[30],-0.525
same,glycan array binding signal (z-score),[31],8.25
same,glycan array binding signal (z-score),[32],-0.175
same,glycan array binding signal (z-score),[33],0.425
same,glycan array binding signal (z-score),[34],0.07
same,glycan array binding signal (z-score),[35],-0.15
same,glycan array binding signal (z-score),[36],-0.229
same,glycan array binding signal (z-score),[37],0.134
same,glycan array binding signal (z-score),[38],-0.54
same,glycan array binding signal (z-score),[39],-0.177
same,glycan array binding signal (z-score),[40],1.39
same,glycan array binding signal (z-score),[41],-0.134
same,glycan array binding signal (z-score),[42],0.098
same,glycan array binding signal (z-score),[43],0.025
same,glycan array binding signal (z-score),[44],0.448
same,glycan array binding signal (z-score),[45],-0.147

# Shown tab-delimited: entries from further up
binder	measurement	setting	value
B1	glycan array binding signal (z-score)	[5]	1.01
same	glycan array binding signal (z-score)	[6]	-0.017
